Results are given in words; binding and its absence hold for the method and conditions named.
Target: Escherichia coli CpxA sensor domain (residues 31 to 163) (Escherichia coli) (UniProt P0AE82)
Assay: crystal structure; hanging drop vapor diffusion at room temperature (~21 °C); protein 21.1 mg/ml in 50 mM Hepes pH 7.0, 350 mM NaCl; reservoir 100 mM Tris-HCl pH 7.5, 20% v/v 2-methyl-2,4-pentanediol; two copies in the asymmetric unit; both purified

binding: no binding
B1: Escherichia coli CpxA sensor domain (residues 31 to 163) (domain or fragment, UniProt P0AE82 31-163)
chain: DSRQMTELLDSEQRQGLMIEQHVEAELANDPPNDLMWWRRLFRAIDKWAPPGQRLLLVTTEGRVIGAERSEMQIIRNFIGQADNADHPQKKKYGRVELVGPFSVRDGEDNYQLYLIRPASSSQSDFINLLFDR
